No constants are given. Whether binding was seen depends on the method and setting. Some entries that bind do so weakly or less than the wild type.
Biological target: RXRα_(98-462) (human) (UniProt P19793)
Experiment: cross-linking

The chains behind the UniProt entries cited, without tags or fusion partners. Residues count along the entry.
UniProt P19793, residues 98-462: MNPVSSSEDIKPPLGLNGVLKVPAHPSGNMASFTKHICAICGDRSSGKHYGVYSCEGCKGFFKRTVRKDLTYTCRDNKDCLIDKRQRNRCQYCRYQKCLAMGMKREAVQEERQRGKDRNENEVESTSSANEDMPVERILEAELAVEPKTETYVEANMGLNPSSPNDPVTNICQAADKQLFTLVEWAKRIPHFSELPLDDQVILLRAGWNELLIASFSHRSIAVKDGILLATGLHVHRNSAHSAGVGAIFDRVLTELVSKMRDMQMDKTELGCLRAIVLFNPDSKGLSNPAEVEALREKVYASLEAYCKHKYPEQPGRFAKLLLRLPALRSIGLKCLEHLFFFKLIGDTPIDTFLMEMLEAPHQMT

- binding: binds
B1: FXR_(120-486) (domain or fragment, UniProt Q96RI1 120-486)
chain: KKPRMGASAGRIKGDELCVVCGDRASGYHYNALTCEGCKGFFRRSITKNAVYKCKNGGNCVMDMYMRRKCQECRLRKCKEMGMLAECMYTGLLTEIQCKSKRLRKNVKQHADQTVNEDSEGRDLRQVTSTTKSCREKTELTPDQQTLLHFIMDSYNKQRMPQEITNKILKEEFSAEENFLILTEMATNHVQVLVEFTKKLPGFQTLDHEDQIALLKGSAVEAMFLRSAEIFNKKLPSGHSDLLEERIRNSGISDEYITPMFSFYKSIGELKMTQEEYALLTAIVILSPDRQYIKDREAVEKLQEPLLDVLQKLCKIHQPENPQHFACLLGRLTELRTFNHHHAEMLMSWRVNDHKFTPLLCEIWDVQ

— publication doi:10.1101/2024.05.13.593894 (bioRxiv, 2024)
